The target in assay [1] is T1, IFT43 (endogenous) (Chlamydomonas reinhardtii (endogenous in strain 21gr)) (UniProt A8HYP5).
T1 sequence: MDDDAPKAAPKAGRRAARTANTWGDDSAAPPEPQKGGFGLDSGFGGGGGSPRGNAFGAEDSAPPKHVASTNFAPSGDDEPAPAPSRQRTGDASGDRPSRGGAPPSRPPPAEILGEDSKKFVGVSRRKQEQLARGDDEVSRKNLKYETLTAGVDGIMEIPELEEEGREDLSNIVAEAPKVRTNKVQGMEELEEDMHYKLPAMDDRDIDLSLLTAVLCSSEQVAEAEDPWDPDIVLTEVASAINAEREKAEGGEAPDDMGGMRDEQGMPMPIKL
As to the kind of experiment: co-IP; anti-IFT43 antibody (15 μl) on lysates of 1x10^9 cells in buffer A-IP (20 mM HEPES pH 7.2, 150 mM NaCl, 5 mM MgCl2); wild type cells, also ift139, ift140 and other IFT-A mutant cells; immunoblots with anti-IFT-A antibodies. On the technique in general: In western blotting, separated proteins are transferred to a membrane and probed.

The next assay has as its target IFT121 (Chlamydomonas). As to the kind of experiment: two-hybrid; pGADT7 and pGBKT7 fusions, all pair combinations co-transformed into yeast AH109; growth at 30°C for 2-3 days on SD -Leu -Trp -His -Ade; empty vectors as control.

These are yes or no findings as the source states them, for the method shown. Binding can be weak; no strength is given. For some assays here: In cells and extracts the contact can be indirect.

On to IFT121 (endogenous), for which the binding entry in assay [1] is given as “binds”.

B1: IFT43 (protein, UniProt A8HYP5 1-272)
chain: MDDDAPKAAPKAGRRAARTANTWGDDSAAPPEPQKGGFGLDSGFGGGGGSPRGNAFGAEDSAPPKHVASTNFAPSGDDEPAPAPSRQRTGDASGDRPSRGGAPPSRPPPAEILGEDSKKFVGVSRRKQEQLARGDDEVSRKNLKYETLTAGVDGIMEIPELEEEGREDLSNIVAEAPKVRTNKVQGMEELEEDMHYKLPAMDDRDIDLSLLTAVLCSSEQVAEAEDPWDPDIVLTEVASAINAEREKAEGGEAPDDMGGMRDEQGMPMPIKL
For B1, the binding entry with IFT121 (Chlamydomonas) is given as “binds”.

For the origin of these results see article PMC5336300.
